Measured values taken from ChEMBL document CHEMBL5050828, “Inhibitors of DUX4 induction for regulation of muscle function” (2021).

Assay: Downregulation of DUX4 expression in facioscapulohumeral muscular dystrophy (FSHD) affected human embryonic stem cell (hESC)-derived skeletal myoblasts and measured by immunocytochemistry analysis
Format: functional, cell-based
Details: Myoblast

Question: For Cc1ccc(NC(=O)c2ccc(CN3CCN(C)CC3)cc2)cc1Nc1nccc(-c2cccnc2)n1 [IMATINIB], which EC50 is on record?
Answer: 380 µM
